Reference: PubChem BioAssay AID1671190 (National Center for Advancing Translational Sciences (NCATS), 2021)
In all, about 580,000 compounds went through this assay and about 6,100 (1.1%) were called active. The shares of active, inactive and inconclusive entries below differ from those in the screen. Calls come from the whole dose curve; as a rule, active = well fitted inhibition curve with a large enough effect; inconclusive = small, poorly fitted or top-dose-only effect, or another doubt; inactive = no such curve, though single readings can be large or run the other way. Potencies beside an inconclusive call are fits to weak or partial responses and may not hold up.

The chains behind the UniProt entries cited, without tags or fusion partners. Where a name states a change or a piece, a line headed by the entry shows the natural chain unless it says otherwise.
UniProt P18054: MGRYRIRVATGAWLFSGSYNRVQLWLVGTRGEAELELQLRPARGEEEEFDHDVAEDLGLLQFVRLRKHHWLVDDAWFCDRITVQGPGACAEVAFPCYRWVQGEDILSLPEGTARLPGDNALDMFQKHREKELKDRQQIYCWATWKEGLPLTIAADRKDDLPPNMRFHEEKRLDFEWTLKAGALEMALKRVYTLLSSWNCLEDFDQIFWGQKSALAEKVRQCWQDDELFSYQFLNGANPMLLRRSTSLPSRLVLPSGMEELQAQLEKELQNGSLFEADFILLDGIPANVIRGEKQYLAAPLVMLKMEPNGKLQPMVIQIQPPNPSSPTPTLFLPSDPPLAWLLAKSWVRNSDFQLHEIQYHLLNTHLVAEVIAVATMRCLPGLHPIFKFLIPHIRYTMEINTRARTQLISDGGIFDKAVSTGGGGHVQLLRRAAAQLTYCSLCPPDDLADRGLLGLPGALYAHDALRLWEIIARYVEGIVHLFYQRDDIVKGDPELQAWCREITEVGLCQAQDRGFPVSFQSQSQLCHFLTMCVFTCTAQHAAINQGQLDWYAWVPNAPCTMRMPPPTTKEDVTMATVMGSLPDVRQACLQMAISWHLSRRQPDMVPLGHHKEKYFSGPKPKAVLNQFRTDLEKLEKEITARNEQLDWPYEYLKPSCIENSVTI

target: Polyunsaturated fatty acid lipoxygenase ALOX12 (Homo sapiens) (UniProt P18054); assay: Primary qHTS assay for inhibitors of human arachidonate 12S-lipoxygenase (ALOX12): Round 2; details: purified 12hLO, xylenol orange hydroperoxide absorbance; activity change, negative = inhibition: at 108 µM (top of the series) unless noted
In short: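 Purified human 12hLO (150 nM final) in 25 mM Hepes, 0.01% Triton X-100, pH 7.0 was preincubated 15 min at room temperature with compound. Then 40 uM arachidonic acid was added, 30 min. Hydroperoxide was read by Fe-XO absorbance ratio 573/405 nm.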
% is set by controls: 0 for no effect and ±100 for the full control effect; potency is the fitted concentration of half-maximal effect.

SMILES	Potency	activity change, negative = inhibition
CC12CCC(C/C1=N\OC(=O)c1c(F)cccc1F)C2(C)C (stereo not drawn)	inconclusive: 39.8 µM [inhibitor, partial curve, poor fit]	–
CCN(CC)CCn1c(NCc2cc(OC)ccc2OC)nc2ccccc21	inconclusive: 39.8 µM [inhibitor, partial curve, poor fit]	–
Cc1ccccc1S(=O)(=O)Nc1ccccc1SCc1cc(=O)n2cc(Cl)ccc2n1	inconclusive: 28.2 µM [inhibitor, partial curve, poor fit]	–
CC(C)CNCc1ccc(C(=O)O)cc1	inconclusive: 25.1 µM [inhibitor, single point]	–
CN(c1cccnc1)c1ccc(NC(=O)Cc2c[nH]c3ccccc23)cc1-c1ccc(C(C)(C)C)cc1	inconclusive: 44.7 µM [inhibitor, partial curve, poor fit]	–
CC(=O)NNc1nc(-c2ccccc2)cs1	–	inactive: -19.1%
Cc1ccc(O)c(CN2CC[C@@H](c3ccc4ccccc4c3)[C@H](O)C2)n1	–	inactive: 32.7%
C=CCCC(=O)Nc1nc(C)c(-c2csc(Nc3cc(OC)ccc3OC)n2)s1	inconclusive: 31.6 µM [inhibitor, partial curve, poor fit]	–
C=C1CCN([C@@H](CC(C)C)C(=O)O)S(=O)(=O)c2ccccc21	inconclusive: 50.1 µM [inhibitor, partial curve, poor fit]	–
CCCCCCSc1nc(O)c(C2OC(=O)c3c2ccc(OC)c3OC)c(=O)n1CC (stereo not drawn)	inconclusive: 70.8 µM [inhibitor, partial curve, poor fit]	–
O=C(CCCn1c(=O)c2cccn2c2cccnc21)Nc1ccccc1Br	inconclusive: 50.1 µM [inhibitor, partial curve, poor fit]	–
COC(=O)[C@]1(C)N[C@H](CN(C)S(=O)(=O)c2ccc(F)cc2)[C@@H]2C(=O)N(Cc3ccccc3)C(=O)[C@@H]21	inconclusive: 7.08 µM [inhibitor, full curve, poor fit]	–
Cc1c(C)c2ccc(OC(C)C(=O)NCc3ccc(S(N)(=O)=O)cc3)cc2oc1=O (stereo not drawn)	–	inactive: -4.12%
O=C(CSc1ccc2ccccc2n1)N/N=C/c1ccccc1O	–	inactive: -2.67%
OC(CN1CCN(C(c2ccccc2)c2ccccc2)CC1)c1ccc(Br)cc1 (stereo not drawn)	inconclusive: 31.6 µM [inhibitor, partial curve]	–
CCc1nnc(NC(=O)c2nnn(-c3ccccc3OC)c2C)s1	inconclusive: 0.631 µM [inhibitor, full curve, poor fit]	–
C[C@@H]1[C@@H](Sc2ccccc2)CC(=O)O[C@@H]1c1ccc(-c2ccccc2)cc1	–	inactive: -8.72%
CC(C)(O)CCc1c(-c2ccc(O)cc2O)oc2c3c(cc(O)c2c1=O)OC(C)(C)C=C3	active: 44.7 µM	–
CS(=O)(=O)N1CCCCC1C(=O)NC1CCCCCCC1 (stereo not drawn)	–	inactive: 0.284%
CCOc1ccc(C(=S)N2CCCC2)cc1OCC	inconclusive: 44.7 µM [inhibitor, partial curve, poor fit]	–
CC1(C(=O)NS(=O)(=O)c2ccc(Cl)s2)CCN1C(=O)Cc1ccccc1Cl (stereo not drawn)	inconclusive: 0.447 µM [inhibitor, full curve, poor fit]	–
CCN(CC)C(=O)N1CCC(n2c(C)cnc2C2CCOCC2)CC1	–	inactive: 19%

SMILES	Potency	activity change, negative = inhibition
CC(C)c1ccc(OCc2nnc(SCc3csc(-c4ccccc4Cl)n3)n2C)cc1	–	inactive: 32.2%
CC(C)c1nnc(SCC(=O)NC(C)C(C)C)o1 (stereo not drawn)	–	inactive: -25.2%
COc1nccnc1NC1CCN(C(=O)c2cccc(C)c2)CC1	–	inactive: 75.9%
Cc1cccn2c(=O)c3cc(C(=O)NCC4CCCO4)c(=N)n(C4CCCCC4)c3nc12 (stereo not drawn)	inconclusive: 70.8 µM [inhibitor, partial curve, poor fit]	–
CCc1nc2ccccc2c(C)c1C(=O)O	inconclusive: 5.62 µM [inhibitor, partial curve, poor fit]	–
Cc1cccc(Oc2c(C(F)(F)F)oc3cc(OC(=O)c4cncc(Br)c4)ccc3c2=O)c1	active: 8.91 µM	–
Cc1ccc2c(c1)C1(CC(=O)Nc3c1cnn3-c1ccc(C(F)(F)F)cc1)C(=O)N2 (stereo not drawn)	inconclusive: 126 µM [inhibitor, single point]	–
Cc1ccccc1NS(=O)(=O)c1ccc2oc(=O)ccc2c1	inconclusive: 100 µM [inhibitor, partial curve, poor fit]	–
Oc1ccc(C=Cc2cc(O)cc(O)c2)cc1	inconclusive: 89.1 µM [inhibitor, single point]	–
COc1ccc(CNC(=O)c2cnc(C)cn2)cc1	–	inactive: 21.2%
COc1ccc(NC(=O)c2cnn3c2NC(C(=O)O)=CC3c2ccc(F)cc2)cc1 (stereo not drawn)	inconclusive: 11.2 µM [inhibitor, partial curve, poor fit]	–
COc1ccc(C(=O)CC(=O)C(=O)Nc2ccc([N+](=O)[O-])cc2C)cc1	inconclusive: 112 µM [inhibitor, single point]	–
Cc1cc(C(=O)N(Cc2ccco2)Cc2cccs2)ccc1-n1cnnn1	–	inactive: -3.58%
CCCN(C(=O)c1ccc(-n2cncn2)c([N+](=O)[O-])c1)C1CCS(=O)(=O)C1 (stereo not drawn)	–	inactive: 7.7%
Cc1nn(-c2ccccc2)c(Cl)c1/C=N/NS(=O)(=O)c1ccc(Br)cc1	inconclusive: 14.1 µM [inhibitor, partial curve, poor fit]	–
C/C(=N\NC(=O)c1cccc(Br)c1)c1ccccn1	–	inactive: 5.13%
CCOC(=O)COc1ccc(C(=O)c2ccccc2)c(O)c1	inconclusive: 31.6 µM [inhibitor, single point]	–
Cc1ccc(C)c(OCC(O)Cn2cnc3c2c(=O)n(C)c(=O)n3C)c1 (stereo not drawn)	inconclusive: 39.8 µM [inhibitor, partial curve, poor fit]	–
COc1ccc(CN(CCC(c2ccco2)C(C)C)C(C)=O)cc1OC (stereo not drawn)	inconclusive: 126 µM [inhibitor, single point]	–
CCCN1CCC2(CC1)Oc1c(OC)cccc1C1CC(c3ccc4c(c3)OCO4)=NN12 (stereo not drawn)	inconclusive: 28.2 µM [inhibitor, partial curve, poor fit]	–
C/C(=N\NC(=S)NC1CCCCC1)c1ccc(OC(F)F)cc1OC(F)F	active: 28.2 µM	–

Individual results from the results shown.
activity change, negative = inhibition, CCCN(C(=O)c1ccc(-n2cncn2)c([N+](=O)[O-])c1)C1CCS(=O)(=O)C1 (stereo not drawn) reads inactive: 7.7%
Potency, Cc1ccc(C)c(OCC(O)Cn2cnc3c2c(=O)n(C)c(=O)n3C)c1 (stereo not drawn) reads inconclusive: 39.8 µM [inhibitor, partial curve, poor fit]
